The target of this experiment is GFP-CENP-A^Cnp1 (S. pombe) (UniProt Q9Y812). In words: co-IP.

Amino acid sequences for entries named in this document (tags omitted). A change or cut given only in a name is not applied to a line headed by its entry.
UniProt Q9Y812: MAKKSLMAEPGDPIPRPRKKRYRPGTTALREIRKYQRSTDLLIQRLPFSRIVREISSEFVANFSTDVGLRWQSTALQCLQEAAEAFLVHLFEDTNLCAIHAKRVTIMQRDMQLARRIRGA
UniProt P48003: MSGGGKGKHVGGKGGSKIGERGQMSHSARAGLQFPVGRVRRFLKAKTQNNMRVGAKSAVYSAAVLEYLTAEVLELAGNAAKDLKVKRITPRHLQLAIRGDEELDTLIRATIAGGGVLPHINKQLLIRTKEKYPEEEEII

These are yes or no findings as the source states them, for the method shown. In cells and extracts the contact can be indirect. Some entries that bind do so weakly or less than the wild type.

Regarding “H2A.Z^Pht1-myc (from UniProt P48003 1-139)”, the binding result is listed as “binds”.
